We go through 36 compounds from PubChem BioAssay AID2685 (National Center for Advancing Translational Sciences (NCATS), 2010).

This assay is described as follows: qHTS Assay for Lipid Storage Modulators in Drosophila S3 Cells.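 For cell number change: cells counted by Cell Tracker Red CMTPX staining in the red channel.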 Particulars: BODIPY lipid droplet fluorescence, 18-24 h; for cell number change: measured here: cell count max response, cells fed with added oleic acid. The gist of the method: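 Drosophila S3 cells got compounds at several concentrations plus oleic acid (400 uM solution). Laser-scanning cytometry with 488 nm excitation read lipid droplets at 500-530 nm and cells at 575-640 nm. Percent activity was relative to 20 uM Triacsin C.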

Setting [1] is: measured here: lipid fluorescence (Fed channel) AC50, cells fed with added oleic acid.
Where [2] appears, read: measured here: cell number channel AC50, cells fed with added oleic acid.

The structures appear in SMILES notation. This is one part of the list. Further columns of the screen follow, without active or inactive calls. The list favours compounds with an active or inconclusive main result. Words in brackets tell the shape of the fitted curve; partial curves, single points and poor fits give uncertain potencies.

For the compound `CCN(CC)S(=O)(=O)c1ccc2c(c1)c(=O)c(C(=O)NCCc1ccc(OC)c(OC)c1)cn2C`, the cell number change was -18.1%.
On the same count and under the same terms, the value for `O=C(Nc1cnc2ccccn2c1=O)c1ccc(F)cc1` was -27.3%.
As to `CCn1c(SCC(=O)NCC2CCCO2)nc2cc(S(=O)(=O)N3CCCCC3)ccc21` (stereo not given), the cell number change came out at 0.698%. Further, the AC50 under setting [1] was 13 µM [rising, partial curve].
Take `CCc1c(C)nc2ncnn2c1N1CCCC(C(=O)NCc2ccco2)C1` (stereo not given): the cell number change was -6.62%. Also, the AC50 under setting [2] was 0.58 µM [rising, partial curve].
As for `COc1ccc(C(C)=O)cc1CSCC(=O)O`, the cell number change was -7.93%.
Regarding `CCOC(=O)c1nnn(-c2nonc2N)c1COc1cc(C)c(Cl)c(C)c1`, the cell number change is -128%. For the same compound, the AC50 under setting [2] is 29.1 µM [falling, single point]. Also, under setting [1], the AC50 is 29.1 µM [falling, single point].
Regarding `O=C(NCCCN1CCCC1=O)[C@H](CSCc1ccccc1)N1Cc2ccccc2C1=O`, the cell number change is -11%. The concentration at half-maximal activity (AC50) under setting [1] is 0.0651 µM [falling, full curve, poor fit].
As for `Cn1ncc(Br)c1C(=O)N/N=C/c1cccc(OC2CSC2)c1`, the cell number change was -2.31%. For the same compound, the AC50 under setting [1] is 29.1 µM [falling, single point].
In the case of `Cc1cc([N+](=O)[O-])nn1Cc1noc(C(=O)NCCCn2ccnc2)n1`, the cell number change turned out to be 3.91%. Under setting [1], the AC50 was 1.46 µM [falling, partial curve].
Regarding `CCC(=O)Nc1ccc(Cl)c(NC(=S)NC(=O)c2cc3ccccc3o2)c1`, the cell number change was -46%. Under setting [2], the AC50 is 2.91 µM [falling, full curve]. Further, the AC50 under setting [1] was 4.11 µM [falling, partial curve, poor fit].
For the compound `CCn1c(SCC(=O)NC2CC2)nnc1-c1ccc(C)cc1`, the cell number change is 1.94%. Besides, the AC50 under setting [1] was 1.64 µM [rising, partial curve, poor fit].
As to `O=C(COc1ccccc1C(=O)c1cnn(-c2ccccc2)c1)Nc1ccc2ccccc2c1`, the cell number change was 12.9%. Besides, the AC50 under setting [1] was 25.9 µM [rising, single point].
Turning to `CN(CCOc1ccccc1)S(=O)(=O)c1ccccc1C#N`, the cell number change is -1.23%. In addition, under setting [2], the AC50 is 0.164 µM [rising, full curve, poor fit]. The AC50 under setting [1] was 4.11 µM [rising, single point].
In the case of `c1cncc(CNc2nc(N3CCOCC3)nc(N3CCOCC3)n2)c1`, the cell number change was -49.2%. Further, the AC50 under setting [2] was 25.9 µM [falling, partial curve].
`CCCCc1nc2ccccc2c(=O)n1NC(=O)c1c(O)c2c(n(CC(C)C)c1=O)CCCC2`: the cell number change was determined as 3.93%. Further, the AC50 under setting [1] is 3.66 µM [rising, single point].
In the case of `Cn1c(CSc2ncn[nH]2)nc2ccccc21`, the cell number change came out at 2.86%.
Consider `Cn1nnnc1SCC1=C(C(=O)O)N2C(=O)C(NC(=O)Cn3nc(C(F)F)cc3C3CC3)C2SC1` (stereo not given), for which the cell number change was 4.53%. In addition, under setting [1], the AC50 was 0.082 µM [falling, full curve, poor fit].
On to `O=C(Nc1nccs1)c1ccc([N+](=O)[O-])cc1`, for which the cell number change came out at 28.3%. Under setting [1], the AC50 is 1.64 µM [rising, full curve, poor fit].
`CS(=O)(=O)N1CCN(c2ccc(NC(=O)C(c3ccccc3)c3ccccc3)cc2)CC1`: the cell number change is -31.6%. Moreover, the half-maximal activity concentration (AC50) under setting [2] is 23.1 µM [falling, single point]. Also, the AC50 under setting [1] was 29.1 µM [falling, single point].
With `COc1ccc(CNC2CC(=O)N(C)C2=O)cc1` (stereo not given), the cell number change worked out at 18.8%. The AC50 under setting [1] was 25.9 µM [falling, partial curve, poor fit].
For `CC1=NNC(=O)C1CC(=O)N/N=C/C(C)=C/c1ccccc1` (stereo not given), the cell number change was -45.5%. Besides, under setting [2], the AC50 was 32.6 µM [falling, partial curve]. Moreover, under setting [1], the AC50 was 13 µM [falling, partial curve].
`O=C(COc1ccc(-c2ccccc2)cc1)NNC(=O)Nc1ccccc1`: the cell number change was -2.48%. The AC50 under setting [1] was 0.231 µM [rising, full curve, poor fit].
`COC(=O)C1CCN(Cc2ccc(OCCCN3CCN(c4ccc([N+](=O)[O-])cc4)CC3)cc2)CC1`: the cell number change is -30%. Further, the AC50 under setting [2] was 29.1 µM [falling, single point]. Also, the AC50 under setting [1] is 29.1 µM [falling, single point].
Turning to `CCN(c1ccccc1)S(=O)(=O)c1cccc(C(=O)NCCN2CCOCC2)c1`, the cell number change was found to be 28%. Also, under setting [1], the AC50 was 1.64 µM [rising, partial curve].
For the compound `O=C(CSc1nnnn1C1CC1)N1CCN(c2ccccc2F)CC1`, the cell number change was -10.5%. Further, the AC50 under setting [1] is 0.731 µM [rising, single point].
`O=C(Nc1cccc2ncccc12)c1ccc(-c2ccc(Cl)cc2Cl)o1`: the cell number change amounted to 127%. The AC50 under setting [2] is 25.9 µM [rising, single point]. Further, the AC50 under setting [1] was 29.1 µM [rising, single point].
Regarding `O=C1c2ccccc2-c2c1cccc2C(=O)N(CCO)CCO`, the AC50 under setting [1] is 23.1 µM [falling, partial curve, poor fit].
For the compound `Cn1cc(C(=O)NC2CCCCC2)c(=O)c2cc(S(=O)(=O)N3CCCC3)ccc21`, the cell number change was determined as 2.84%. For the same compound, under setting [1], the AC50 was 2.31 µM [rising, full curve].
Take `CCCC(C(=O)NCC1CCCO1)N(Cc1ccco1)C(=O)CNS(=O)(=O)c1ccccc1` (stereo not given): the cell number change amounted to 15.4%.
For `CSc1cccc(Nc2ccc(S(=O)(=O)N3CCOCC3)cc2[N+](=O)[O-])c1`, the cell number change is -37.9%. Further, under setting [2], the AC50 is 32.6 µM [falling, single point]. Further, the AC50 under setting [1] is 0.116 µM [falling, full curve, poor fit].
Regarding `CCCCN(CC)CCNC(=O)c1cc2c(=O)[nH]c3ccc(C)cc3c2s1`, the cell number change was 59.5%. In addition, the AC50 under setting [2] is 23.1 µM [rising, single point]. Under setting [1], the AC50 was 11.6 µM [rising, partial curve].
As for `O=C(CSc1nc(Nc2ccccc2)nc(N2CCOCC2)n1)Nc1cc(Cl)ccc1O`, the cell number change was -1.16%. Also, under setting [1], the AC50 is 4.61 µM [falling, single point].
Consider `COc1ccc(N2C(=O)C3CCCN3C2c2cccc(OC)c2OC)cc1` (stereo not given), for which the cell number change was -35%.
In the case of `CCC(C)[C@H](NC(=O)[C@@H]1Cc2ccccc2CN1)C(=O)NCc1ccc(OC)cc1` (stereo not given in full), the cell number change was found to be 8.92%.
Take `Cn1nc(-c2ccc(C(=O)Nc3cccnc3)cc2)c2ccccc2c1=O`: the cell number change was 95%. Further, the AC50 under setting [2] is 3.26 µM [rising, partial curve]. Also, the AC50 under setting [1] was 4.61 µM [rising, partial curve].
`CCc1cc2c(NC(Cc3c[nH]c4ccccc34)C(=O)O)nc(C)nc2s1` (stereo not given): the cell number change is 35.7%. The AC50 under setting [2] is 3.66 µM [rising, partial curve]. Further, the AC50 under setting [1] is 16.4 µM [rising, partial curve].
